Results as given in the supplement of paper PMC10849652.
This is one part of the list.

Protein sequences, listed by entry. Tags and fused reporters are not part of them. Lines headed by an entry give the natural chain unless they say otherwise; changes in a name come on top.
UniProt Q96L08: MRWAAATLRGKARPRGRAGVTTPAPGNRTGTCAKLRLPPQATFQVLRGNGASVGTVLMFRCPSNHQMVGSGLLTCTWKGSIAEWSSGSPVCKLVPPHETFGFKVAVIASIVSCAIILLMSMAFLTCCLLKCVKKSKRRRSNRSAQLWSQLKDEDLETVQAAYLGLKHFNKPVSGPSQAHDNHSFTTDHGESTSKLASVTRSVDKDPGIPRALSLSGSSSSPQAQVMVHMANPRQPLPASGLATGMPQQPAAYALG
UniProt Q15572: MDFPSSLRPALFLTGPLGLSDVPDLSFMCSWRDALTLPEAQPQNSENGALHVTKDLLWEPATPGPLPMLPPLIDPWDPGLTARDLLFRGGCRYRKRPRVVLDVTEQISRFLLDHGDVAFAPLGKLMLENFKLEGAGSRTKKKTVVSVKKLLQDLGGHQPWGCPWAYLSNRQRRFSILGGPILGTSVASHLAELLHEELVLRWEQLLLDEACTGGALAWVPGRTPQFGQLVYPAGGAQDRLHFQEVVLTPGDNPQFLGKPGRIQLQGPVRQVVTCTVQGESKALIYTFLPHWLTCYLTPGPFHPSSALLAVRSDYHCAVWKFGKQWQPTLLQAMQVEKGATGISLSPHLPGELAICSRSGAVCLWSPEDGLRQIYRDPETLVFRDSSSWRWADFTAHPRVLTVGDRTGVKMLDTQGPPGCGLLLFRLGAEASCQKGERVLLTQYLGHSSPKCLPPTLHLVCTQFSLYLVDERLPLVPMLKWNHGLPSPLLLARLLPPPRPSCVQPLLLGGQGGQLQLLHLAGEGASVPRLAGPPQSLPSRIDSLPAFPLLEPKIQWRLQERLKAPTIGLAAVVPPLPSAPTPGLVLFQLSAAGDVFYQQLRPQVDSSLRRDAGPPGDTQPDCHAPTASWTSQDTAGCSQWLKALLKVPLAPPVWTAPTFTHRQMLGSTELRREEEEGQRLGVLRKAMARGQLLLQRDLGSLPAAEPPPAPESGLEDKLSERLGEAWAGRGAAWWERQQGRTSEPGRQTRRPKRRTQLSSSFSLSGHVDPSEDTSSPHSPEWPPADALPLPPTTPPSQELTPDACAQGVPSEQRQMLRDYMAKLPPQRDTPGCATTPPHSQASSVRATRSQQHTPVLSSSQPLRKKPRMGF
UniProt O94768: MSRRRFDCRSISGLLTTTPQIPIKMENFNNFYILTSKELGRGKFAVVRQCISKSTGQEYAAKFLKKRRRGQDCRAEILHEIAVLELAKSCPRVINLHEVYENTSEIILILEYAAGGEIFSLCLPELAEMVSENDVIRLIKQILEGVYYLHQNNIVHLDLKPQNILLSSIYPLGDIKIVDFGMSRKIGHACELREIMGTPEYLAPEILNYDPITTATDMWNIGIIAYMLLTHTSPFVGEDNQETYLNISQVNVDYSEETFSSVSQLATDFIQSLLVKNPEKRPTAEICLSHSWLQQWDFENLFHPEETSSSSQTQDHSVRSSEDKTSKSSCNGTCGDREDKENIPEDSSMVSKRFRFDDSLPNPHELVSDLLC
UniProt O15061: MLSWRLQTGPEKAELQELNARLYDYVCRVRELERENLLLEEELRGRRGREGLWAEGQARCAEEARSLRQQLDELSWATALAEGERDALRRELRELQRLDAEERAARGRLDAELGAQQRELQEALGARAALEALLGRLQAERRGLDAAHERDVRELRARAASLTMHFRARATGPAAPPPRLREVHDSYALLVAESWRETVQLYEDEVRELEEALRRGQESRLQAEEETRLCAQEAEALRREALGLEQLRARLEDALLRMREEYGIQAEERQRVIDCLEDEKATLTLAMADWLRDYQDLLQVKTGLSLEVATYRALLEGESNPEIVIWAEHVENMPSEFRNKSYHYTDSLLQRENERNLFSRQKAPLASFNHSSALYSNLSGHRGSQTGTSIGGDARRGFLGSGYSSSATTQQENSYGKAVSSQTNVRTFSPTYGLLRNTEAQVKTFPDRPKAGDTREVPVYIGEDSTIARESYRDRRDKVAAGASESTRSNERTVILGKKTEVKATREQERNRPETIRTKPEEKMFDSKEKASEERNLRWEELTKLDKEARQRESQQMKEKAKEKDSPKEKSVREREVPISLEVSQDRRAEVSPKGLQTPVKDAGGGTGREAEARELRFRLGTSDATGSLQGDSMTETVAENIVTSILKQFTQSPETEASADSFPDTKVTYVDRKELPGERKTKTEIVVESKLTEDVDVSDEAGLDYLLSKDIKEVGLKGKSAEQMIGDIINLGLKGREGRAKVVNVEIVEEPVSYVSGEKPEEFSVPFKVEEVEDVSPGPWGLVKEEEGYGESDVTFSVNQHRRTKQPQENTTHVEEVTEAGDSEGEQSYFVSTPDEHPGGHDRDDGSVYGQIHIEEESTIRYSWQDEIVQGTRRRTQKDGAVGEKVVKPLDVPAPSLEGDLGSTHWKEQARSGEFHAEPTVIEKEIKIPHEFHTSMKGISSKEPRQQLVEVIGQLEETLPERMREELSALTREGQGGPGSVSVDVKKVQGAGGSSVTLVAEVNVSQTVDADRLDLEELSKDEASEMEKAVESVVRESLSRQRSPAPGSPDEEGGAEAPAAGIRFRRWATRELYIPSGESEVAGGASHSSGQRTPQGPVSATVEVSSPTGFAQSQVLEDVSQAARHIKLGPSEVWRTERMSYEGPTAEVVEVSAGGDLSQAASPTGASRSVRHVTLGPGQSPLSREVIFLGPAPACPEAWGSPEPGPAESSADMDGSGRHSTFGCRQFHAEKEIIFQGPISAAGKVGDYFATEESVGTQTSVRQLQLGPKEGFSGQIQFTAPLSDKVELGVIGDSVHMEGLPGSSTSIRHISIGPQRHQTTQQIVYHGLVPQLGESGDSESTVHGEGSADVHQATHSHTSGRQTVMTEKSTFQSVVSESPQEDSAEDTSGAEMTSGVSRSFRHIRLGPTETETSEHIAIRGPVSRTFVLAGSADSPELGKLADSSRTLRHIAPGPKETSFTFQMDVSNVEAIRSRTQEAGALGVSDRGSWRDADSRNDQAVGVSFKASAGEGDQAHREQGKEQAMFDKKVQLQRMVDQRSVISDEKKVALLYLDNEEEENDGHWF
UniProt Q9P289: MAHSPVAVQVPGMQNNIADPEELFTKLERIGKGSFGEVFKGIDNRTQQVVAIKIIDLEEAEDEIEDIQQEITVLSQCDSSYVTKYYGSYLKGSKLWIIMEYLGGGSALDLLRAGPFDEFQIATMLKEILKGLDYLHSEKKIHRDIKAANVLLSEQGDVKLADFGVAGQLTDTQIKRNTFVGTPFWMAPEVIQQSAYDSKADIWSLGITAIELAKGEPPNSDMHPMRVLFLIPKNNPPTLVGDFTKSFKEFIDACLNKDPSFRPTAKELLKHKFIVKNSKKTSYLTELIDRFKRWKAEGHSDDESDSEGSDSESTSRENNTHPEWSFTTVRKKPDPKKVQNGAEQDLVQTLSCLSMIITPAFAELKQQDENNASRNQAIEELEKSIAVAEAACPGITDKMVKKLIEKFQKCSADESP
UniProt Q9UEE5: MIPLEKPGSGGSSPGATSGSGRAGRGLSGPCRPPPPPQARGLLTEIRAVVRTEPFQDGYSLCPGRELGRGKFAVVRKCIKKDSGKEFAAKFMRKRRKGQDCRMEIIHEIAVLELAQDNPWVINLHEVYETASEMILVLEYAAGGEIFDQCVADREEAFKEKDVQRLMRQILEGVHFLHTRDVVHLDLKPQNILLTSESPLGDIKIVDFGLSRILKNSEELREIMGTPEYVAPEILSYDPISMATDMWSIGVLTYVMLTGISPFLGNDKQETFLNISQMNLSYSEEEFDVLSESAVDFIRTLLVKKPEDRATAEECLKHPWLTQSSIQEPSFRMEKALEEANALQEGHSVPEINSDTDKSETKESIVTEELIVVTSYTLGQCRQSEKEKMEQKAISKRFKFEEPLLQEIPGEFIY
UniProt Q6PIF2: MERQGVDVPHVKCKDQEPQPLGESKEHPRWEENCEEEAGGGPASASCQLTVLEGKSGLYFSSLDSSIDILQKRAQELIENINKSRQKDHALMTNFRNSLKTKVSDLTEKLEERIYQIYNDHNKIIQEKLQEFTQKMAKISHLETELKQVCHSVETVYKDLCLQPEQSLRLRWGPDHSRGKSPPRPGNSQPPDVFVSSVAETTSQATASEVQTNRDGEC
UniProt Q9HAC7: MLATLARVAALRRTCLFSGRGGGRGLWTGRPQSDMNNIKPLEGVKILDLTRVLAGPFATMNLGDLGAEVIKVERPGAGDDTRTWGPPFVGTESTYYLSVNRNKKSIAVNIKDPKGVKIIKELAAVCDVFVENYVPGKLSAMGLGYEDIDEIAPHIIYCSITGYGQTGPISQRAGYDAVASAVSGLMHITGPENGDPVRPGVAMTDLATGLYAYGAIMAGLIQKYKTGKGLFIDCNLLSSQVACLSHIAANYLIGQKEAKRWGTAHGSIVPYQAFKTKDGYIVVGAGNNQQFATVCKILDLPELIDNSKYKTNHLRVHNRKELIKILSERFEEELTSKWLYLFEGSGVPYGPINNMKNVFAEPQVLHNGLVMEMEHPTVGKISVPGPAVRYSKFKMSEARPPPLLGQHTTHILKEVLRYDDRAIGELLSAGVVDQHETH
UniProt O94901, whole entry, looked up: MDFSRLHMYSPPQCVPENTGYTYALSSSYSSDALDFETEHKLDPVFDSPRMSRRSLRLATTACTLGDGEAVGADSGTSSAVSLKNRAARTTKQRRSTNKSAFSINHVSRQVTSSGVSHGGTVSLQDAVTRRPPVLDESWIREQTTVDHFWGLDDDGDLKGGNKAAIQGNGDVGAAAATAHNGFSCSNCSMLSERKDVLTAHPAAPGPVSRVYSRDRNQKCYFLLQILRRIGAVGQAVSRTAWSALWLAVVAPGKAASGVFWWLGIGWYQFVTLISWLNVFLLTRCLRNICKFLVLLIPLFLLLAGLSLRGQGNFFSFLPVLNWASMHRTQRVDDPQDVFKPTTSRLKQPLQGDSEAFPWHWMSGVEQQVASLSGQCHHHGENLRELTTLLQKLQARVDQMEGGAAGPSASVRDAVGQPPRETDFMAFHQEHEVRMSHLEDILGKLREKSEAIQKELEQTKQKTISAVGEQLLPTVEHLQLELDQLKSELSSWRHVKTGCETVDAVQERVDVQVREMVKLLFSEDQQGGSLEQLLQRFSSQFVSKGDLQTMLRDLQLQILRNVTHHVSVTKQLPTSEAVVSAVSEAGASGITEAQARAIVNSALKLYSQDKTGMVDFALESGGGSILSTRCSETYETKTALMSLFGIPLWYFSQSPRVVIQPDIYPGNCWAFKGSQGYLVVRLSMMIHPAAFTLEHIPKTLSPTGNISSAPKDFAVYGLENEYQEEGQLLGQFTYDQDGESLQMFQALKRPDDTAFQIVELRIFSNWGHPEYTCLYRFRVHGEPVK
UniProt Q9UBS9: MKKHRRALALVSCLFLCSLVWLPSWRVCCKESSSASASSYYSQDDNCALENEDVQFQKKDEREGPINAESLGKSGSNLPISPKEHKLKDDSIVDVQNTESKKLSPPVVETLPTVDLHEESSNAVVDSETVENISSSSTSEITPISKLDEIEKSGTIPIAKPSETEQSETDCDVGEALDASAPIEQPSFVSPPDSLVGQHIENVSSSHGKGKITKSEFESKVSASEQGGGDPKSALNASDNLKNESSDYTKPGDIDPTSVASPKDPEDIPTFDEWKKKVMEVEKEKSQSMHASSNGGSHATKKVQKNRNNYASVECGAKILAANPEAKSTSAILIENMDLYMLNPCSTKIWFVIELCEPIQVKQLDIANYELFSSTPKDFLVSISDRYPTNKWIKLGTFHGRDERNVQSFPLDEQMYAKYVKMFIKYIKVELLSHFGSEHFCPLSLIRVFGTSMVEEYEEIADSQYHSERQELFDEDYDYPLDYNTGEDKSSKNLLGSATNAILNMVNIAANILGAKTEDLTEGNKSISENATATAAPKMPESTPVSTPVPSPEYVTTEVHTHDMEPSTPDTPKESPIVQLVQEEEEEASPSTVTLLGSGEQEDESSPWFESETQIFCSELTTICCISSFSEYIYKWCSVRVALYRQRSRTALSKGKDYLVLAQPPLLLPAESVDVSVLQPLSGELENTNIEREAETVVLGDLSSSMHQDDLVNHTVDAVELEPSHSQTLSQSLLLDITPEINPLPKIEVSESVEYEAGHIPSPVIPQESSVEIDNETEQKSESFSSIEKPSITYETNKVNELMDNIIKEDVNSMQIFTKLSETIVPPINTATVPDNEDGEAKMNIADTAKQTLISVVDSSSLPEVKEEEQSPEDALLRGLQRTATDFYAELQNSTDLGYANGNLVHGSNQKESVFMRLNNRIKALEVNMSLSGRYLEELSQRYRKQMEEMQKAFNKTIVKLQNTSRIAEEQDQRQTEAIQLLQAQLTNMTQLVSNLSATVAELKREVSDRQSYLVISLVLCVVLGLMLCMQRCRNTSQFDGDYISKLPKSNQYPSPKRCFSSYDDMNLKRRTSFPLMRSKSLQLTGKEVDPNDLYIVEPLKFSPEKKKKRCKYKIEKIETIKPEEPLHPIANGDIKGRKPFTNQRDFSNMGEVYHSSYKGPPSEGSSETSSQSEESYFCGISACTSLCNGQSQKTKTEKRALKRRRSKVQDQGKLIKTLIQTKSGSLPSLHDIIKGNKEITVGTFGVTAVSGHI

What was measured:
Test in all cases: log2 fold change, soluble protein after heating vs DMSO (PISA); higher = thermal stabilisation; K562 lysate, 10 uM; active = over 0.2 and 3.5 SD of the protein, either way, in both replicates (recomputed)
[1] = compound: CCCS(=O)(=O)Nc1ccc(F)c(C(=O)c2c[nH]c3ncc(Cl)cc23)c1F
Procedure, shortened: (§1)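 A 30 min treatment with 10 μM compound was applied to crude K562 extract at 1 mg/mL protein in PBS pH 7.4 with 1 mM MgCl2. Heating for 3 min spanned 48°C-58°C, after which aliquots were pooled, adjusted to 0.5% NP-40 at 4°C and spun at 21,000xg for 90 min. TMTpro 16plex LC-MS/MS of the supernatant, with channel sums equalised, gave values recorded as log-two fold change in thermal stability against solvent controls, from duplicates.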

barasertib = compound: CCN(CCCOc1ccc2c(Nc3cc(CC(=O)Nc4cccc(F)c4)[nH]n3)ncnc2c1)CCOP(=O)(O)O [barasertib]
Procedure, shortened: as §1

volasertib = compound: CC[C@@H]1C(=O)N(C)c2cnc(Nc3ccc(C(=O)N[C@H]4CC[C@H](N5CCN(CC6CC6)CC5)CC4)cc3OC)nc2N1C(C)C [volasertib]
Procedure, shortened: as §1

saracatinib = compound: CN1CCN(CCOc2cc(OC3CCOCC3)c3c(Nc4c(Cl)ccc5c4OCO5)ncnc3c2)CC1 [saracatinib]
Procedure, shortened: as §1

sotrastaurin = compound: CN1CCN(c2nc(C3=C(c4c[nH]c5ccccc45)C(=O)NC3=O)c3ccccc3n2)CC1 [sotrastaurin]
Procedure, shortened: as §1

[2] = compound: CCn1c(C(=O)N(C2CC2)C2CC2)cc2c3c(ncn3C)c(Nc3cc(C)n(C)n3)nc21
Procedure, shortened: as §1

[3] = compound: CCn1cc(-c2ccnc3[nH]c(-c4cccc(CN(C)C)c4)cc23)c(-c2ccc(NC(=O)N(C)C)cc2)n1
Procedure, shortened: as §1

[4] = compound: CN1CCC(CNc2ccc3ncc(-c4cccc(OC(F)(F)F)c4)n3n2)CC1
Procedure, shortened: as §1

[5] = compound: CC[C@@H]1C(=O)N(C)c2cnc(Nc3ccc(C(=O)NC4CCN(C)CC4)cc3OC)nc2N1C1CCCC1
Procedure, shortened: as §1

vemurafenib = compound: CCCS(=O)(=O)Nc1ccc(F)c(C(=O)c2c[nH]c3ncc(-c4ccc(Cl)cc4)cc23)c1F [vemurafenib]
Procedure, shortened: as §1

Measured: log2 fold change

SYTL2 isoform 8 (UniProt Q9HCH5)
inactive: [1] 0.192 | barasertib 0.023 | volasertib 0.078 | saracatinib 0.047

STK19 (UniProt P49842)
inactive: saracatinib 0.08 | sotrastaurin -0.035

SUSD3 (UniProt Q96L08)
inactive: [1] -0.071 | volasertib 0.104 | [2] 0.004 | [3] 0.028 | [4] 0.011

SZT2 (UniProt Q5T011)
inactive: [1] -0.032 | barasertib 0.313 | [5] 0.293 | volasertib -0.095 | [2] 0.006 | [3] 0.035 | [4] 0.094 | saracatinib -0.073

Fetched one by one from above (3):
SYTL2 isoform 8 (UniProt Q9HCH5)
inactive: [1] 0.192 | barasertib 0.023 | volasertib 0.078 | saracatinib 0.047

STK19 (UniProt P49842)
inactive: saracatinib 0.08 | sotrastaurin -0.035

SZT2 (UniProt Q5T011)
inactive: [1] -0.032 | barasertib 0.313 | [5] 0.293 | volasertib -0.095 | [2] 0.006 | [3] 0.035 | [4] 0.094 | saracatinib -0.073

Continued:

SWSAP1 (UniProt Q6NVH7)
inactive: [2] 0.135 | saracatinib -0.149

TAF1C (UniProt Q15572)
inactive: vemurafenib 0.012 | barasertib 0.012 | [5] 0.017 | [2] -0.07 | [3] -0.058 | [4] 0.051 | saracatinib 0.049 | sotrastaurin -0.053

SYNGR1 isoform 2 (UniProt O43759)
inactive: barasertib 0.065 | [5] -0.233 | [2] -0.038 | [3] 0.031 | [4] 0.014 | sotrastaurin -0.018

TAF3 (UniProt Q5VWG9)
inactive: [1] 0.164 | volasertib -0.161 | [2] 0.118 | [3] -0.42 | [4] -0.018

STYX (UniProt Q8WUJ0)
inactive: [1] 0.082 | barasertib 0.121 | [5] 0.069 | volasertib -0.015 | [2] 0.003 | [3] 0.078 | [4] -0.077 | saracatinib 0.029 | sotrastaurin -0.1

TADA2A (UniProt O75478)
inactive: [2] 0.031 | sotrastaurin -0.245

SULT1A3 isoform 3 (UniProt P0DMM9)
inactive: barasertib -0.009 | [5] -0.142 | [2] 0.089 | [3] 0.13 | [4] -0.06 | saracatinib 0.029 | sotrastaurin 0.045

TAB3 (UniProt Q8N5C8)
inactive: [1] 0.12 | barasertib 0.004 | [5] 0.018 | volasertib -0.257 | [2] 0.036 | [3] 0.131 | [4] -0.021 | saracatinib 0.006 | sotrastaurin 0.034

STON1 isoform 2 (UniProt Q9Y6Q2)
inactive: [1] -0.002 | volasertib -0.046 | [2] -0.014

STK17B (UniProt O94768)
inactive: [2] -0.451 | saracatinib -0.002 | sotrastaurin 0.057

STK16 (UniProt O75716)
inactive: vemurafenib 0.137 | [1] -0.103 | [5] 0.037 | volasertib 0.215 | [2] 0.654 | saracatinib 0.033 | sotrastaurin 0.061

STXBP6 (UniProt Q8NFX7)
inactive: barasertib 0.059 | [2] 0.143 | [3] -0.125 | [4] -0.088 | sotrastaurin -0.001

STIMATE (UniProt Q86TL2)
inactive: [2] -0.069

SUSD1 isoform 2 (UniProt Q6UWL2)
inactive: [5] -0.125 | [2] -0.219 | [3] -0.021 | [4] 0.073 | saracatinib 0 | sotrastaurin 0.004

STK35 (UniProt Q8TDR2)
inactive: [1] -0.01 | barasertib 0.021 | [5] 0.005 | volasertib -0.106 | [3] -0.269 | [4] 0.165 | saracatinib 0.015

STRN3 (UniProt H0YJT2)
inactive: [5] -0.131 | [3] 0.301 | [4] -0.185 | saracatinib -0.014

TADA2B (UniProt Q86TJ2)
inactive: vemurafenib 0.02 | saracatinib 0.086 | sotrastaurin 0.169

STRN3 isoform 2 (UniProt Q13033)
inactive: barasertib -0.08 | [3] -0.042 | [4] 0.065 | saracatinib -0.066

SYNM (UniProt O15061)
inactive: barasertib 0.063 | [5] 0.101 | [3] -0.06 | [4] 0.038

STK26 isoform 3 (UniProt Q9P289)
inactive: [5] 0.189 | saracatinib -0.046 | sotrastaurin -0.119

SYNGR3 (UniProt O43761)
inactive: barasertib -0.086

STK17A (UniProt Q9UEE5)
inactive: [3] 0.164 | [4] -0.109

STIM2 isoform 2 (UniProt Q9P246)
inactive: [1] 0.038 | [5] 0.088 | volasertib -0.115 | [2] 0.017 | [3] 0.294 | [4] -0.132 | saracatinib 0.079 | sotrastaurin 0.096

SYCE2 (UniProt Q6PIF2)
inactive: sotrastaurin 0.101

SUFU (UniProt Q9UMX1)
inactive: vemurafenib 0.012 | [1] 0.247 | volasertib 0.06 | [2] -0.055 | [3] -0.01 | [4] -0.05 | sotrastaurin -0.099

TAF5L (UniProt O75529)
inactive: vemurafenib 0.07 | barasertib 0.121 | [5] 0.03 | [2] 0.081 | [3] 0.011 | [4] 0.067 | saracatinib 0.016 | sotrastaurin -0.045

SUGCT isoform 3 (UniProt Q9HAC7)
inactive: [5] 0 | saracatinib 0.049

SUSD6 (UniProt Q92537)
inactive: [3] -0.105 | [4] 0.349

SUPT3H (UniProt O75486)
inactive: [1] -0.015 | [5] 0.088 | volasertib 0.065 | [2] -0.008 | [3] 0.138 | [4] -0.149 | sotrastaurin 0.023

SVBP (UniProt Q8N300)
inactive: [5] -0.017 | [2] 0.002 | [3] 0.12 | [4] -0.01 | sotrastaurin -0.029

SUN1 isoform 9 (UniProt O94901)
inactive: [2] 0.063

TAF13 (UniProt Q15543)
inactive: vemurafenib -0.038 | [2] 0.104 | [3] -0.081 | [4] -0.006

SUCO isoform 2 (UniProt Q9UBS9)
inactive: vemurafenib 0.059 | [5] -0.18 | [2] 0.089 | sotrastaurin 0.174

STK10 (UniProt O94804)
inactive: barasertib 0.111 | [2] -0.335 | saracatinib 0.24 | sotrastaurin -0.069
